PubChem BioAssay AID1259425 | University of Nebraska Medical Center | 2018

- Screen: 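Compare each knockdown with KSR1 silencing using changes in marker transcripts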 (primary screen)
- Cell system: HCT116 human colon cancer cells
- Reagent: siRNA pool against human genes, 50 nM siRNA
- Measured: 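mRNA of six signature genes measured together by branched-DNA assay after 50 nM siRNA pool, blank removed, divided by geometric mean of two housekeeping genes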
- Direction: BNIP3L mRNA: higher = more BNIP3L transcript after knockdown; NDRG1 mRNA: higher = more NDRG1 transcript after knockdown; BNIP3 mRNA: higher = more BNIP3 transcript after knockdown; ALDOC mRNA: higher = more ALDOC transcript after knockdown
Here is a random part of about 14,000 reagents tested. Not all columns of the deposit are shown. Not stated in the record: the time to read-out.

| gene knocked down | BNIP3L mRNA, set 1 | NDRG1 mRNA, set 1 | BNIP3 mRNA, set 1 | ALDOC mRNA, set 1 |
| --- | --- | --- | --- | --- |
| DNTT (DNA nucleotidylexotransferase) | 0.144 | 0.203 | 0.265 | 0.0332 |
| UGGT2 (UDP-glucose glycoprotein glucosyltransferase 2) | 0.163 | 0.0728 | 0.62 | 0.0546 |
| GTF2H1 (general transcription factor IIH subunit 1) | 0.136 | 0.114 | 0.34 | 0.0222 |
| LAPTM4B (lysosomal protein transmembrane 4 beta) | 0.179 | 0.729 | 0.406 | 0.0145 |
| ROBO4 (roundabout guidance receptor 4) | 0.0922 | 0.138 | 0.289 | 0.0144 |
| ZNF134 (zinc finger protein 134) | 0.0862 | 0.137 | 0.213 | 0.0555 |
| CXCR4 (C-X-C motif chemokine receptor 4) | 0.132 | 0.201 | 0.346 | 0.0462 |
| UGCG (UDP-glucose ceramide glucosyltransferase) | 0.0739 | 0.17 | 0.212 | 0.0285 |
| CHRM2 (cholinergic receptor muscarinic 2) | 0.109 | 0.301 | 0.226 | 0.0337 |
| ALX3 (ALX homeobox 3) | 0.171 | 0.195 | 0.416 | 0.000627 |
| PSMB4 (proteasome 20S subunit beta 4) | 0.303 | 0.65 | 0.275 | 0.0515 |
| TNFRSF6B (TNF receptor superfamily member 6b) | 0.279 | 0.23 | 0.269 | 0.0387 |
| OXGR1 (oxoglutarate receptor 1) | 0.139 | 0.244 | 0.252 | 0.0547 |
| TMEM51 (transmembrane protein 51) | 0.0605 | 0.217 | 0.284 | 0.0129 |
| SELENOO (selenoprotein O) | 0.161 | 0.345 | 0.273 | 0.127 |
| DUSP18 (dual specificity phosphatase 18) | 0.0969 | 0.281 | 0.392 | 0.0398 |
| GPR143 (G protein-coupled receptor 143) | 0.222 | 0.214 | 0.367 | 0.0439 |
| MED26 (mediator complex subunit 26) | 0.0978 | 0.253 | 0.314 | 0.0401 |
| KCNV2 | 0.118 | 0.21 | 0.273 | 0.0321 |

Sorted by “BNIP3 mRNA, set 1” (lowest first): 2 of the entries above
| gene knocked down | BNIP3L mRNA, set 1 | NDRG1 mRNA, set 1 | BNIP3 mRNA, set 1 | ALDOC mRNA, set 1 |
| --- | --- | --- | --- | --- |
| DNTT (DNA nucleotidylexotransferase) | 0.144 | 0.203 | 0.265 | 0.0332 |
| UGGT2 (UDP-glucose glycoprotein glucosyltransferase 2) | 0.163 | 0.0728 | 0.62 | 0.0546 |

Further results:
| gene knocked down | BNIP3L mRNA, set 1 | NDRG1 mRNA, set 1 | BNIP3 mRNA, set 1 | ALDOC mRNA, set 1 |
| --- | --- | --- | --- | --- |
| TMPRSS3 (transmembrane serine protease 3) | 0.0935 | 0.142 | 0.282 | 0.0372 |
| TMEM108 (transmembrane protein 108) | 0.226 | 0.302 | 0.412 | 0.024 |
| STK36 (serine/threonine kinase 36) | 0.091 | 0.102 | 0.361 | 0.00891 |
| KIF25-AS1 (KIF25 antisense RNA 1) | 0.112 | 0.186 | 0.41 | 0.0333 |
| STK38 (serine/threonine kinase 38) | 0.249 | 0.306 | 1.03 | 0.0272 |
| PTBP2 (polypyrimidine tract binding protein 2) | 0.103 | 0.11 | 0.269 | 0.0544 |
| TMUB2 (transmembrane and ubiquitin like domain containing 2) | 0.263 | 0.431 | 0.407 | 0.0684 |
| PCGF6 (polycomb group ring finger 6) | 0.143 | 0.0838 | 0.275 | 0.0778 |
| DENND4B (DENN domain containing 4B) | 0.181 | 0.18 | 0.308 | 0.0217 |
| GCFC2 (GC-rich sequence DNA-binding factor 2) | 0.107 | 0.894 | 0.362 | 0.0739 |
| RGS8 (regulator of G protein signaling 8) | 0.128 | 0.847 | 0.382 | 0.0648 |
| FSCN2 (fascin actin-bundling protein 2, retinal) | 0.117 | 0.0705 | 0.267 | 0.00696 |
| HPSE2 (heparanase 2 (inactive)) | 0.0839 | 0.0569 | 0.237 | 0.0223 |
| CDS1 (CDP-diacylglycerol synthase 1) | 0.0725 | 0.0945 | 0.218 | 0.0197 |
| HPS3 (HPS3 biogenesis of lysosomal organelles complex 2 subunit 1) | 0.387 | 0.545 | 0.486 | 0.0514 |
| CYTIP (cytohesin 1 interacting protein) | 0.176 | 0.262 | 0.365 | 0.0267 |
| PDLIM5 (PDZ and LIM domain 5) | 0.0542 | 0.11 | 0.369 | 0.00199 |
| SBF2 (SET binding factor 2) | 0.117 | 0.143 | 0.285 | 0.0222 |
| AMY2B (amylase alpha 2B) | 0.105 | 0.272 | 0.196 | 0.0169 |
| FSTL3 (follistatin like 3) | 0.222 | 0.948 | 0.353 | 0.0449 |
| CLN8 (CLN8 transmembrane ER and ERGIC protein) | 0.0601 | 0.158 | 0.282 | 0.0299 |
| HP1BP3 (heterochromatin protein 1 binding protein 3) | 0.0795 | 0.248 | 0.333 | 0.0227 |
| FAM53B (family with sequence similarity 53 member B) | 0.0821 | 0.17 | 0.291 | 0.0296 |
| MRGPRF (MAS related GPR family member F) | 0.13 | 0.584 | 0.352 | 0.0224 |
| CHRNB3 (cholinergic receptor nicotinic beta 3 subunit) | 0.0517 | 0.102 | 0.245 | 0.0195 |
| TSEN34 (tRNA splicing endonuclease subunit 34) | 0.15 | 0.241 | 0.309 | 0.0222 |
| FJX1 (four-jointed box kinase 1) | 0.21 | 0.19 | 0.336 | 0.0288 |
| NEK8 (NIMA related kinase 8) | 0.149 | 0.133 | 0.163 | 0.00565 |
| DEF8 (differentially expressed in FDCP 8 homolog) | 0.128 | 1.63 | 0.338 | 0.0198 |
| RTN3 (reticulon 3) | 0.0708 | 0.521 | 0.28 | 0.0161 |
| TACC2 (transforming acidic coiled-coil containing protein 2) | 0.147 | 0.0878 | 0.486 | 0.0435 |
